Square brackets hold non-standard residues; d marks the D form. Aib = CC(C)(N)C(=O)O
Assay: general procedure: Fmoc solid-phase peptide synthesis; TentaGel S Ram S resin
Conditions: whole synthesis, analytical HPLC and MS, scale of the general procedure 1 g resin, 0.25 mmol/g

## H-Y[Aib]EGTFISDYSIYLEKKAAKEFVNWLLAQK-NH2
  final HPLC purity: 96%

— US10100097B2 (Zealand Pharma A/S, priority 2012, dated 2018)
